Data as given in PubChem BioAssay AID1053208 (Peter MacCallum Cancer Centre, 2014).
Purpose: 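Synthetic lethal interactions between gene loss and doxorubicin in osteosarcoma cells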 (primary screen). System: mouse osteosarcoma cells, early-passage culture from an engineered mouse model of fibroblastic bone tumour. Knock-down reagent: siRNA pool against mouse genes, 40 nM. Time to read-out: about 120 h (48 h before drug, then 72 h with drug). Treatment: doxorubicin 100 nM for 72 h, roughly 30-40% inhibitory dose. Measurement: 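Luminescent ATP signal taken as viability with or without 100 nM doxorubicin for 72 h; mean of two wells set against non-targeting siRNA and turned into robust z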. Reading the numbers: viability z-score with doxorubicin: higher = more viable cells under doxorubicin; viability z-score without drug: higher = more viable cells with knock-down alone. Hit rule: 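Called active if knock-down leaves viability unchanged without drug (z within -2 to 2) but lowers it with doxorubicin (z at or under -2)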.
This is one part, drawn at random, of about 17,000 deposited reagents. 788 of them (4.7%) were called active. 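Calls rest on z-score classes alone; an extra cut-off of viability at most 70% of control was not applied to them.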 Further read-outs or replicates are left out here.

Nup88 (nucleoporin 88) — combined z-score class: low cell count with and without drug; viability z-score with doxorubicin: -6.63; viability z-score without drug: -6.74; call: inactive
Izumo1r (IZUMO1 receptor, JUNO) — combined z-score class: no change with or without drug; viability z-score with doxorubicin: 0.45; viability z-score without drug: 0.84; call: inactive
Gna15 (guanine nucleotide binding protein, alpha 15) — combined z-score class: no change with or without drug; viability z-score with doxorubicin: -0.56; viability z-score without drug: 1.01; call: inactive
Ereg (epiregulin) — combined z-score class: no change with or without drug; viability z-score with doxorubicin: 0.45; viability z-score without drug: -0.17; call: inactive
Parp11 (poly (ADP-ribose) polymerase family, member 11) — combined z-score class: no change with or without drug; viability z-score with doxorubicin: 1.01; viability z-score without drug: 1.18; call: inactive
Prkag2 (protein kinase, AMP-activated, gamma 2 non-catalytic subunit) — combined z-score class: no change with or without drug; viability z-score with doxorubicin: 0; viability z-score without drug: 1.18; call: inactive

Targets listed so far whose target name begins with P or p (2):
Parp11 (poly (ADP-ribose) polymerase family, member 11) — combined z-score class: no change with or without drug; viability z-score with doxorubicin: 1.01; viability z-score without drug: 1.18; call: inactive
Prkag2 (protein kinase, AMP-activated, gamma 2 non-catalytic subunit) — combined z-score class: no change with or without drug; viability z-score with doxorubicin: 0; viability z-score without drug: 1.18; call: inactive

More records follow:
Zfp317 (zinc finger protein 317) — combined z-score class: no change with or without drug; viability z-score with doxorubicin: 1.91; viability z-score without drug: 1.52; call: inactive
Serpini2 (serine (or cysteine) peptidase inhibitor, clade I, member 2) — combined z-score class: no change with or without drug; viability z-score with doxorubicin: 1.35; viability z-score without drug: 1.52; call: inactive
Zfp866 (zinc finger protein 866) — combined z-score class: no change with or without drug; viability z-score with doxorubicin: 0.34; viability z-score without drug: -0.51; call: inactive
Tmem42 (transmembrane protein 42) — combined z-score class: no change with or without drug; viability z-score with doxorubicin: 0; viability z-score without drug: 1.52; call: inactive
Zap70 (zeta-chain (TCR) associated protein kinase) — combined z-score class: no change with or without drug; viability z-score with doxorubicin: -0.22; viability z-score without drug: 1.52; call: inactive
H2bc21 (H2B clustered histone 21) — combined z-score class: no change with or without drug; viability z-score with doxorubicin: 0.34; viability z-score without drug: -0.17; call: inactive
